Results are given in words; binding and its absence hold for the method and conditions named. Binding seen in cells or lysates may run through a third protein. Some results given as binding are weak or reduced against the parent protein; the word gives no strength.
Biological target: BMF, endogenous in HCC1171 cells (human (endogenous in HCC1171)) (UniProt Q96LC9)
Experiment: co-IP; anti-BMF or anti-BIM on 200 µg of M-PER lysate of HCC1171 cells, 3 h on ice, Protein G Dynabeads, three washes; cells treated with JDQ443 (400 nM), IAG933 (600 nM) or both

The chains behind the UniProt entries cited, without tags or fusion partners.
UniProt Q96LC9: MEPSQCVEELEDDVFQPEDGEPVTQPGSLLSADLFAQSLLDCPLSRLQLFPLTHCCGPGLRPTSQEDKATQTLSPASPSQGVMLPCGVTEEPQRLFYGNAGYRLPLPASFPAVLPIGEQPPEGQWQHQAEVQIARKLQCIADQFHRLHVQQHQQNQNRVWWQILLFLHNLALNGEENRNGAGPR

binding: binds
Substance: BCLxL (BCL2L1), endogenous in HCC1171 cells (from UniProt Q07817-1 1-233)

Source: publication PMC11286534
